Assay results: patent US9409952B2 (Chugai Seiyaku Kabushiki Kaisha, priority 2011, dated 2016)
Positions of bridges follow the written chain, without caps; N, C: chain ends. Non-standard residues stand in square brackets, D forms with d. *: point of attachment. Ala(1H-tetrazol-5-yl) = N[C@@H](Cc1nnn[nH]1)C(=O)O; NMeF = CN[C@@H](Cc1ccccc1)C(=O)O; PhLac = O=C(O)[C@@H](O)Cc1ccccc1; dPhLac = O=C(O)[C@H](O)Cc1ccccc1; NMeL = CN[C@@H](CC(C)C)C(=O)O; NMeA = CN[C@@H](C)C(=O)O; Piperidide = C1CCN(*)CC1; Boc = CC(C)(C)OC(=O)*; SBn = c1ccc(CS*)cc1; StBu = CC(C)(C)S*; tBu = CC(C)(C)*

test: general procedure: Fmoc solid-phase peptide synthesis; 2-Chlorotrityl resin; DIC/HOAt; details: coupling step

Substance	step yield
C(Cys(CH2CONH2)-Thr(tBu)-Thr(tBu)-Thr (tBu)-Arg (Pbf)-Asp)-Tyr (tBu)-Tyr (tBu)-Arg (Pbf)-Gly-Gly-OH	7.3%
Fmoc-Phe-tBuSSlac-Phe-Lys(Alloc-Cys(StBu))-Leu-MeAla-MeLeu-Ala-MePhe-MeAla-Ala-OH	54%

same assay, conditions: cyclisation step

Substance	cyclisation yield
*Cys(SPy)-Lys(Me2)-Trp-^HOGly-Pro-Lys(H-Cys(SPy))-Asp*-Pro-NH2, cyclized at two * sites	60%
*Phe-tBuSSlac-Phe-Lys(Alloc-Cys(StBu))-Leu-MeAla-MeLeu-Ala-MePhe-MeAla-Ala*, cyclized at two * sites	76%
c(^HOGly-Phe-Lys (N3)-Leu-MeAla-MeLeu-Ala-MePhe-MeAla-Ala-Phe-Cys(StBu)-Pro)	39%

same assay, conditions: cyclisation step, on linear precursor

Substance	cyclisation yield
*Phe-^MeLeu-^MeVal-^MeGly-Thr-^MeAla-Ala-^MeLeu-Leu-Phe*-Piperidine (C—C Bonded Between Two * Sites)	4.8%
c(Cys(CH2CONH2)-Thr(tBu)-Thr(tBu)-Thr(tBu)-Arg(Pbf)-Asp)-OBn	52%
*Phe-MeLeu-MeVal-MeGly-Thr-MeAla-Ala-MeLeu-Leu-Phe*-Piperidine (C—C-Bonded Between Two * Sites)	6.5%

same assay, conditions: late stage modification step

Substance	step yield
Sulfoxide (Compound P-117) by direct oxidation of Ac*-MeAla-Phe-MeLeu-Thr-MeGly-MeLeu-Ser(tBu)-MeIle-Cys*-piperidine (Compound P-111)	83%
C(Cys(CH2CONH2)-Thr-Thr-Thr-Arg-Asp)-Tyr-Tyr-Arg-Gly-Gly-OH	20%
Fmoc-Asp(OBn)-MePhe-MePhe-Ala-pip	92%
S-benzyl (3S,6S,9S,12S,15S,21S,24S,27S)-27-amino-3-(((S)-1-(((S)-1-((2-amino-2-oxoethyl)amino)-3-hydroxy-1-oxopropan-2-yl)amino)-1-oxopropan-2-yl)(methyl)carbamoyl)-6,21-dibenzyl-15-isobutyl-9-isopropyl-12,22,24-trimethyl-5,8,11,14,17,20,23,26-octaoxo-28-phenyl-4,7,10,13,16,19,22,25-octaazaoctacosane-1-thioate	87%
MeAla-Val-MeLeu-Thr-MePhe-Gly-MeLeu-MeVal-Phe-Asp(O(2-EtSS-6-Me-Ph))-MePhe-Ala-piperidine	33%
Ala*-Pro-Val-Ile-MePhe-Met(O2)-Pro-MePhe(3-Cl)-Val-Met(02)-Asp*-Pro-MeGly-Ser-NH(CH2)2NMe2	91%
Boc-AA[NMeF]GLAVFD(SBn)[NMeA]S(tBu)G-NH2	51%
Sulfoxide of Ac*-MeAla-MePhe-MeLeu-Thr-MeGly-MeLeu-Ser(tBu)-MeIle-Cys*-piperidine compounds (cyclized at two * sites, Compound P-109)	90%
Acbz-Cys(StBu)-Gly-Lys(Me2)-Trp-Cys(StBu)-Pro-Lac-Lys(Acbz-Thz)-Asp(SBn)-Pro-NH2	70%
(5S,8S,11S,14S,20S,23S,26S,29R)-8-benzyl-23-(tert-butoxymethyl)-26-((S)-sec-butyl)-14-((R)-1-hydroxyethyl)-11,20-diisobutyl-4,5,7,10,16,19,25-heptamethyl-29-(piperidine-1-carbonyl)-1-thia-4,7,10,13,16,19,22,25,28-nonaazacyclotriacontane-3,6,9,12,15,18,21,24,27-nonone 1,1-dioxide	84%
2-(ethyldisulfanyl)-6-methylphenyl (3S,6S,9S,12S,18S,21S,24S,27S,30S)-30-amino-6,18-dibenzyl-21-((R)-1-hydroxyethyl)-12,24-diisobutyl-9,27-diisopropyl-10,13,19,25-tetramethyl-3-(methyl((S)-1-oxo-1-(((S)-1-oxo-1-(piperidin-1-yl)propan-2-yl)amino)-3-phenylpropan-2-yl)carbamoyl)-5,8,11,14,17,20,23,26,29-nonaoxo-4,7,10,13,16,19,22,25,28-nonaazahentriacontan-1-oate	51%
H-Cys(StBu)-Gly-Lys(Me2)-Trp-Cys(StBu)-Pro-^HOGly-Lys-Asp(SBn)-Pro-NH2	58%
Boc-Ala-Val-MeLeu-Thr(Trt)-MePhe-Gly-MeLeu-MeVal-Phe-Asp-MePhe-Ala-piperidine	99%
Acbz-Cys(StBu)-Lys(Me2)-Trp-^HOGly-Pro-Lys(Acbz-Thz)-Asp(SBn)-Pro-NH2	85%
Boc-Ala-Val-MeLeu-Thr(Trt)-MePhe-Gly-MeLeu-MeVal-Phe-Asp(SBn)-MePhe-Ala-piperidine	62.3%
Boc-MeAla-Val-MeLeu-Thr(Trt)-MePhe-Gly-MeLeu-MeVal-Phe-Asp-MePhe-Ala-piperidine	95%

Substance	step yield
MeAla-Val-MeLeu-Thr-MePhe-Gly-MeLeu-MeVal-Phe-Asp(SBn)-MePhe-Ala-piperidine	60.0%
Boc-MeAla-Val-MeLeu-Thr(Trt)-MePhe-Gly-MeLeu-MeVal-Phe-Asp(SBn)-MePhe-Ala-piperidine	71.0%
Boc-FA[NMeF]GLAVFD[NMeA]S(tBu)G-NH2	83%
Boc-GA[NMeF]G[NMeL]AVFD(SBn)[NMeA]S(tBu)G-NH2	21.8%
Boc-GA[NMeF]G[NMeL]AVFD[NMeA]S(tBu)G-NH2	44%
Acbz-Cys(StBu)-Gly-Lys(Me2)-Trp-Cys (StBu)-Pro-^HOGly-Lys (Acbz)-Asp (SBn)-Pro-NH2	71%
*Phe-tBuSSlac-Phe-Lys(H-Cys(StBu))-Leu-MeAla-MeLeu-Ala-MePhe-MeAla-Ala*, cyclized at two * sites	88%
(5S,8S,11S,14S,17S,23S,26S,29S,32R)-5,11-dibenzyl-26-(tert-butoxymethyl)-29-((S)-sec-butyl)-17-((R)-1-hydroxyethyl)-14,23-diisobutyl-4,7,8,10,13,19,22,28-octamethyl-32-(piperidine-1-carbonyl)-1-thia-4,7,10,13,16,19,22,25,28,31-decaazacyclotritriacontane-3,6,9,12,15,18,21,24,27,30-decone 1-oxide	68%
Boc-AA[NMeF]GLAVFD[NMeA]S(tBu)G-NH2	88%
Ala-Val-MeLeu-Thr-MePhe-Gly-MeLeu-MeVal-Phe-Asp(SBn)-MePhe-Ala-piperidine	22.9%
S-benzyl (4S,7S,13S,16S,19S,22S,25S)-1-amino-25-(((S)-1-(((S)-1-((2-amino-2-oxoethyl)amino)-3-hydroxy-1-oxopropan-2-yl)amino)-1-oxopropan-2-yl)(methyl)carbamoyl)-7,22-dibenzyl-13-isobutyl-19-isopropyl-4,6,12,16-tetramethyl-2,5,8,11,14,17,20,23-octaoxo-3,6,9,12,15,18,21,24-octaazaheptacosane-27-thioate	69.5%
Fmoc-Asp-MePhe-MePhe-Ala-pip	66%
Boc-MeAla-Val-MeLeu-Thr(Trt)-MePhe-Gly-MeLeu-MeVal-Phe-Asp(O(2-EtSS-6-Me-Ph))-MePhe-Ala-piperidine	80%
S-benzyl (3S,6S,9S,12S,15S,21S,24S,27S)-27-amino-3-(((S)-1-(((S)-1-((2-amino-2-oxoethyl)amino)-3-hydroxy-1-oxopropan-2-yl)amino)-1-oxopropan-2-yl)(methyl)carbamoyl)-6,21-dibenzyl-15-isobutyl-9-isopropyl-12,22,24-trimethyl-5,8,11,14,17,20,23,26-octaoxo-4,7,10,13,16,19,22,25-octaazaoctacosane-1-thioate	73%
Boc-FA[NMeF]GLAVFD(SBn)[NMeA]S(tBu)G-NH2	39%
c(Cys(CH2CONH2)-Thr(tBu)-Thr(tBu)-Thr(tBu)-Arg(Pbf)-Asp)-OH	86%

same assay, conditions: oxidative folding step

Substance	oxidative folding yield
*Cys#-Lys(Me2)-Trp-^HoGly-Pro-Lys(H-Cys#)-Asp*-Pro-NH2, cyclized at two * sites and two # sites and having two SH groups forming a disulfide bond at # sites	49%

same assay, conditions: whole synthesis

Substance	isolated mass
[NMeL]L[NMeL][NMeF]L[NMeF][NMeL][Ala(1H-tetrazol-5-yl)][NMeL][NMeL]D-Piperidide (lactam N-11; SMILES CC(C)C[C@@H]1NC(=O)[C@H](CC(C)C)N(C)C(=O)C[C@@H](C(=O)N2CCCCC2)NC(=O)[C@H](CC(C)C)N(C)C(=O)[C@H](CC(C)C)N(C)C(=O)[C@H](Cc2nn[nH]n2)NC(=O)[C@H](CC(C)C)N(C)C(=O)[C@H](Cc2ccccc2)N(C)C(=O)[C@H](CC(C)C)NC(=O)[C@H](Cc2ccccc2)N(C)C(=O)[C@H](CC(C)C)N(C)C1=O)	1.92 mg
^HOGly-Pro-MeLeu-*Lys-MeAla-Leu-MeLeu-MeLeu-Asp-piperidine-MeLeu-MePhe(3-Cl)-Ile* (cyclized at two * sites)	1.6 mg

same assay, conditions: whole synthesis, scale of the general procedure 250 to 300 mg resin per column

Substance	isolated yield
[NMeL]L[NMeL][NMeF]L[NMeF][NMeL][Ala(1H-tetrazol-5-yl)][NMeL][NMeL]D-Piperidide (lactam N-11; SMILES CC(C)C[C@@H]1NC(=O)[C@H](CC(C)C)N(C)C(=O)C[C@@H](C(=O)N2CCCCC2)NC(=O)[C@H](CC(C)C)N(C)C(=O)[C@H](CC(C)C)N(C)C(=O)[C@H](Cc2nn[nH]n2)NC(=O)[C@H](CC(C)C)N(C)C(=O)[C@H](Cc2ccccc2)N(C)C(=O)[C@H](CC(C)C)NC(=O)[C@H](Cc2ccccc2)N(C)C(=O)[C@H](CC(C)C)N(C)C1=O)	4.8%
^HOGly-Pro-MeLeu-*Lys-MeAla-Leu-MeLeu-MeLeu-Asp-piperidine-MeLeu-MePhe(3-Cl)-Ile* (cyclized at two * sites)	1.6%

test: general procedure: Fmoc solid-phase peptide synthesis; Fmoc-Ala-O-Trt(2-Cl) resin; DIC/HOAt; details: whole synthesis, scale 20.2 μmol

Substance	isolated mass	isolated yield
Ac-Trp-D-Cys(StBu)-Pro-Lac-Ala-OH	3.0 mg	22%
Ac-Trp-D-Cys(StBu)-Pro-^HOGly-Ala-OH	3.0 mg	22%

same assay, conditions: whole synthesis, scale 80.9 μmol

Substance	isolated mass	isolated yield
Ac-Trp-Cys(StBu)-MeGly-^HOGly-Ala-OH	26.7 mg	52%
Ac-Trp-Cys(StBu)-Pro-Lac-Ala-OH	51.4 mg	94%
Ac-Trp-Cys(StBu)-Pro-^HOGly-Ala-OH	37.8 mg	70%
Ac-WC(StBu)P[PhLac]A-OH	51.2 mg	84%
Ac-WC(StBu)P[dPhLac]A-OH	50.0 mg	82%
Ac-Trp-D-Cys(StBu)-MeGly-^HOGly-Ala-OH	36.5 mg	71%
Ac-Trp-Cys(StBu)-Pro-^HOGly(Me)2-Ala-OH	46.4 mg	83%
